Experimental data: PubChem BioAssay AID1259254 (NCATS, 2017)
The whole screen tested about 59,000 reagents; shown is a part drawn at random. Over the whole deposit, about 1,550 (2.6%) got an active call. 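G2 share is only a proxy for re-replication; each gene was hit by three separate siRNAs, and active genes were retested.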 Raw values vary from plate to plate and are shown uncorrected. A number with no mark means an inactive call. The numbers tell different reagents against one gene apart. The record does not give: the amount of reagent.

Screen: 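Genome-wide screen for genes that prevent DNA re-replication in cancer cells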 (primary screen)
Cell system: human HCT116 colorectal cancer cells
Reagent: single siRNA against human genes
Timing: 3 days
Read-out: 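Nuclei stained with Hoechst and imaged; cell-cycle phase assigned by DNA content; G2 share scaled per plate, non-targeting siRNA 0%, GMNN siRNA 100%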
Reading the numbers: G2 robust z-score and G2 cells, % of GMNN control: higher = more G2 cells, more excess DNA replication; raw share of cells in G2: higher = larger share of cells with G2 DNA content
Hit rule: 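Active siRNAs have a G2 robust z of 5 or more median absolute deviations over the median, which in these data means about 38% or higher of GMNN control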

| target | reagent no. | G2 robust z-score | G2 cells, % of GMNN control | raw share of cells in G2 (%) |
| --- | --- | --- | --- | --- |
| SAR1AP3 | 1 | -0.263 | 1.11 | 4.37 |
| SAR1AP3 | 2 | -0.208 | 1.5 | 3.92 |
| SAR1AP3 | 3 | 0.048 | 3.31 | 5.52 |
| TWF2 | 1 | -1.09 | -4.67 | 4.14 |
| TWF2 | 2 | 0.603 | 7.21 | 7.81 |
| TWF2 | 3 | 1.49 | 13.4 | 7.98 |
| NAIF1 | 1 | 0.135 | 3.92 | 5 |
| NAIF1 | 2 | -0.402 | 0.136 | 3.18 |
| NAIF1 | 3 | -0.755 | -2.34 | 2.45 |
| RPA1 | 1 | 1.37 | 12.6 | 8.33 |
| RPA1 | 2 | 1.18 | 11.3 | 8.98 |
| RPA1 | 3 | 3.03 | 24.3 | 13.3 |
| KRT23 | 1 | 0.973 | 9.81 | 7.45 |
| KRT23 | 2 | -0.917 | -3.48 | 2.85 |
| KRT23 | 3 | -0.663 | -1.7 | 5.39 |
| CNTNAP2 | 1 | -0.773 | -2.47 | 5.04 |
| CNTNAP2 | 2 | -1.21 | -5.57 | 2.34 |
| CNTNAP2 | 3 | 0.652 | 7.56 | 6.46 |
| MARCHF7 | 1 | -0.655 | -1.64 | 3.87 |
| MARCHF7 | 2 | 0.281 | 4.95 | 6.83 |
| MARCHF7 | 3 | -1.18 | -5.36 | 1.28 |
| OR5A1 | 1 | -0.179 | 1.71 | 4.2 |
| OR5A1 | 2 | -0.657 | -1.66 | 2.56 |
| OR5A1 | 3 | 0.186 | 4.28 | 4.56 |
| RPL23P5 | 1 | 0.151 | 4.03 | 5.28 |
| RPL23P5 | 2 | 2.06 | 17.5 | 10.5 |
| RPL23P5 | 3 | 0.284 | 4.96 | 6.85 |
| FASTKD4 | 1 | -0.647 | -1.59 | 4.61 |
| FASTKD4 | 2 | -0.393 | 0.203 | 4.03 |
| FASTKD4 | 3 | -0.389 | 0.231 | 3.49 |
| ATF7 | 1 | -0.183 | 1.68 | 6.42 |
| ATF7 | 2 | -0.31 | 0.783 | 4.09 |
| ATF7 | 3 | 2.11 | 17.8 | 13.5 |
| ZNF79 | 1 | -1.02 | -4.21 | 2.13 |
| ZNF79 | 2 | -0.818 | -2.79 | 4.75 |
| ZNF79 | 3 | -0.644 | -1.56 | 2.68 |
| LIMD2 | 1 | -0.0779 | 2.42 | 5.07 |
| LIMD2 | 2 | 1.96 | 16.7 | 12.4 |
| LIMD2 | 3 | -1.15 | -5.1 | 2.9 |
| CRYGA | 1 | -0.72 | -2.1 | 4.32 |
| CRYGA | 2 | 5.39 (active) | 40.9 | 19.1 |
| CRYGA | 3 | 3 | 24.1 | 13 |
| TTR | 1 | -0.504 | -0.577 | 4.88 |
| TTR | 2 | 0.0209 | 3.11 | 5.13 |
| TTR | 3 | -0.186 | 1.66 | 3.93 |
| PTF1A | 1 | -0.811 | -2.74 | 3.55 |
| PTF1A | 2 | 3.14 | 25.1 | 13.9 |
| PTF1A | 3 | -1.15 | -5.13 | 3.51 |
| ATP5MC1 | 1 | -1.2 | -5.46 | 1.96 |
| ATP5MC1 | 2 | -0.846 | -2.99 | 3.7 |
| ATP5MC1 | 3 | 0.374 | 5.6 | 7.07 |
| IKZF3 | 1 | -0.405 | 0.118 | 3.57 |
| IKZF3 | 2 | 1 | 10 | 10.5 |
| IKZF3 | 3 | 2.11 | 17.8 | 10.8 |
| FCRL5 | 1 | 1 | 10 | 8.5 |
| FCRL5 | 2 | -0.161 | 1.84 | 6.19 |
| FCRL5 | 3 | 4.93 | 37.7 | 17.8 |
| ARGLU1 | 1 | -0.605 | -1.29 | 4.03 |
| ARGLU1 | 2 | 0.0222 | 3.12 | 5.43 |
| ARGLU1 | 3 | 0.988 | 9.92 | 6.3 |
| RGS17 | 1 | -1.26 | -5.9 | 3.49 |
| RGS17 | 2 | 0.592 | 7.14 | 6.56 |
| RGS17 | 3 | -0.315 | 0.751 | 4.24 |
| KCNIP3 | 1 | -0.335 | 0.609 | 3.01 |
| KCNIP3 | 2 | -0.835 | -2.9 | 4.6 |
| KCNIP3 | 3 | -0.13 | 2.06 | 4.28 |
| ANKRD62 | 1 | 1.36 | 12.6 | 8.3 |
| ANKRD62 | 2 | 0.0387 | 3.24 | 4.68 |
| ANKRD62 | 3 | 0.754 | 8.27 | 7.52 |

10 of these entries in another layout:
{"target":"RPL23P5","reagent no.":3,"G2 robust z-score":0.284,"G2 cells, % of GMNN control":4.96,"raw share of cells in G2 (%)":6.85}
{"target":"FASTKD4","reagent no.":1,"G2 robust z-score":-0.647,"G2 cells, % of GMNN control":-1.59,"raw share of cells in G2 (%)":4.61}
{"target":"FASTKD4","reagent no.":2,"G2 robust z-score":-0.393,"G2 cells, % of GMNN control":0.203,"raw share of cells in G2 (%)":4.03}
{"target":"FASTKD4","reagent no.":3,"G2 robust z-score":-0.389,"G2 cells, % of GMNN control":0.231,"raw share of cells in G2 (%)":3.49}
{"target":"ATF7","reagent no.":1,"G2 robust z-score":-0.183,"G2 cells, % of GMNN control":1.68,"raw share of cells in G2 (%)":6.42}
{"target":"ATF7","reagent no.":2,"G2 robust z-score":-0.31,"G2 cells, % of GMNN control":0.783,"raw share of cells in G2 (%)":4.09}
{"target":"ATF7","reagent no.":3,"G2 robust z-score":2.11,"G2 cells, % of GMNN control":17.8,"raw share of cells in G2 (%)":13.5}
{"target":"ZNF79","reagent no.":1,"G2 robust z-score":-1.02,"G2 cells, % of GMNN control":-4.21,"raw share of cells in G2 (%)":2.13}
{"target":"ZNF79","reagent no.":2,"G2 robust z-score":-0.818,"G2 cells, % of GMNN control":-2.79,"raw share of cells in G2 (%)":4.75}
{"target":"ZNF79","reagent no.":3,"G2 robust z-score":-0.644,"G2 cells, % of GMNN control":-1.56,"raw share of cells in G2 (%)":2.68}
